T1: SLC41A1 (human)
T1 chain: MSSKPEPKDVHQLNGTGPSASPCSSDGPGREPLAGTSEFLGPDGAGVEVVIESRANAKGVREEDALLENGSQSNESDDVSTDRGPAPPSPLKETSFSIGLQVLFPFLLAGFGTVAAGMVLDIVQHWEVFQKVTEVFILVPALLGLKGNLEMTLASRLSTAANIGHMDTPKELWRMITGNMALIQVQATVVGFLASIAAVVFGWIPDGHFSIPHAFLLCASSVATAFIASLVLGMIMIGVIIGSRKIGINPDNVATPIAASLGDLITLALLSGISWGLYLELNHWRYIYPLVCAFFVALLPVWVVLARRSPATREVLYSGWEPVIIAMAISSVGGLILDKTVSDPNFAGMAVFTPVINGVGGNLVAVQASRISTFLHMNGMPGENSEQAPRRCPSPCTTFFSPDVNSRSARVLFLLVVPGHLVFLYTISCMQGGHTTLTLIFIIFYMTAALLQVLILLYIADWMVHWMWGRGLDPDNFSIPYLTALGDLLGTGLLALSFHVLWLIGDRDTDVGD

B1: Putative uncharacterized protein Cxorf62 (other)
chain: MPKSLEIYKGSCNWEESGLLGSCFSQGLALLPRVEWSGAILAHCIVDLPSSSDPPTSASHFSGLQAHTTTARWSLTLLPRLECSGTISAHYNLRLLGSSNSPVSASQVAETTEACHHTRLIFVFSVETGFHHVGQAGLKLLTSGDPPASASQSAGITGVSHSARPKSCFLQLLG
B2: Keratinocyte-associated protein 2 (other)
chain: MVVGTGTSLALSSLLSLLLFAGMQMYSRQLASTEWLTIQGGLLGSGLFVFSLTAFNNLENLVFGKGFQAKIFPEILLCLLLALFASGLIHRVCVTTCFIFSMVGLYYINKISSTLYQAAAPVLTPAKVTGKSKKRN

Biological target: T1, SLC41A1
Assay: split-ubiquitin method screen (DUALmembrane SU-YTH) for SLC41A1 complex-forming partners

| Binder | occurrence |
| --- | --- |
| B1 | 2 clones |
| B2 | 2 clones |
